Test results: patent US20230220068A1 (CODIAK BIOSCIENCES, published 2023)

Target: SIRPα (as used in the Octet analysis of FIGS. 3A-3C)
Assay: Octet, exosomes on SIRPα, all steps aligned by step baseline

B1: PrX (protein, human, UniProt Q9P2B2 26-879, looked up)
scaffold on exosomes: VPTATLVRVVGTELVIPCNVSDYDGPSEQNFDWSFSSLGSSFVELASTWEVGFPAQLYQERLQRGEILLRRTANDAVELHIKNVQPSDQGHYKCSTPSTDATVQGNYEDTVQVKVLADSLHVGPSARPPPSLSLREGEPFELRCTAASASPLHTHLALLWEVHRGPARRSVLALTHEGRFHPGLGYEQRYHSGDVRLDTVGSDAYRLSVSRALSADQGSYRCIVSEWIAEQGNWQEIQEKAVEVATVVIQPSVLRAAVPKNVSVAEGKELDLTCNITTDRADDVRPEVTWSFSRMPDSTLPGSRVLARLDRDSLVHSSPHVALSHVDARSYHLLVRDVSKENSGYYYCHVSLWAPGHNRSWHKVAEAVSSPAGVGVTWLEPDYQVYLNASKVPGFADDPTELACRVVDTKSGEANVRFTVSWYYRMNRRSDNVVTSELLAVMDGDWTLKYGERSKQRAQDGDFIFSKEHTDTFNFRIQRTTEEDRGNYYCVVSAWTKQRNNSWVKSKDVFSKPVNIFWALEDSVLVVKARQPKPFFAAGNTFEMTCKVSSKNIKSPRYSVLIMAEKPVGDLSSPNETKYIISLDQDSVVKLENWTDASRVDGVVLEKVQEDEFRYRMYQTQVSDAGLYRCMVTAWSPVRGSLWREAATSLSNPIEIDFQTSGPIFNASVHSDTPSVIRGDLIKLFCIITVEGAALDPDDMAFDVSWFAVHSFGLDKAPVLLSSLDRKGIVTTSRRDWKSDLSLERVSVLEFLLQVHGSEDQDFGNYYCSVTPWVKSPTGSWQKEAEIHSKPVFITVKMDVLNAFKYPLLIGVGLSTVIGLLSCLIGYCSSHWCCKKEVQETRRERRRLMSMEMD
binding: no binding

No constants are given. Whether binding was seen depends on the method and setting.
